These results are taken from article PMC9465852, “Comparative analyses of vertebrate CPEB proteins define two subfamilies with coordinated yet distinct functions in post-transcriptional gene regulation”.

Amino acid sequences for entries named in this document (tags omitted). A change or cut given only in a name is not applied to a line headed by its entry.
UniProt Q91572: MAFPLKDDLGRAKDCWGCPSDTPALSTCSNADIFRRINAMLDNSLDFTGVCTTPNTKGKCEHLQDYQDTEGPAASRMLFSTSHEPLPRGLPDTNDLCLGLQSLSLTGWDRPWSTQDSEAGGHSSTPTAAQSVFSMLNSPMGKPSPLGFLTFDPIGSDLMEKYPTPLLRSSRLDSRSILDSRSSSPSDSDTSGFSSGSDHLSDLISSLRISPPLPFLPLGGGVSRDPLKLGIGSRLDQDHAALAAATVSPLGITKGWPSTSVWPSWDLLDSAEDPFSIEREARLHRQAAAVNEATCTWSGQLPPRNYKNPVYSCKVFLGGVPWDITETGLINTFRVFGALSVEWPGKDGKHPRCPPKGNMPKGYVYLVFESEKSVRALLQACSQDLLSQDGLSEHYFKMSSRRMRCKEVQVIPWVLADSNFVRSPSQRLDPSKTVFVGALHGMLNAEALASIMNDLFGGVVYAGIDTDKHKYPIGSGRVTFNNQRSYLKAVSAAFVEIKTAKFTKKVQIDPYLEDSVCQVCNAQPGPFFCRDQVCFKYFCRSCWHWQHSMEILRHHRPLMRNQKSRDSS
UniProt Q9PTG8: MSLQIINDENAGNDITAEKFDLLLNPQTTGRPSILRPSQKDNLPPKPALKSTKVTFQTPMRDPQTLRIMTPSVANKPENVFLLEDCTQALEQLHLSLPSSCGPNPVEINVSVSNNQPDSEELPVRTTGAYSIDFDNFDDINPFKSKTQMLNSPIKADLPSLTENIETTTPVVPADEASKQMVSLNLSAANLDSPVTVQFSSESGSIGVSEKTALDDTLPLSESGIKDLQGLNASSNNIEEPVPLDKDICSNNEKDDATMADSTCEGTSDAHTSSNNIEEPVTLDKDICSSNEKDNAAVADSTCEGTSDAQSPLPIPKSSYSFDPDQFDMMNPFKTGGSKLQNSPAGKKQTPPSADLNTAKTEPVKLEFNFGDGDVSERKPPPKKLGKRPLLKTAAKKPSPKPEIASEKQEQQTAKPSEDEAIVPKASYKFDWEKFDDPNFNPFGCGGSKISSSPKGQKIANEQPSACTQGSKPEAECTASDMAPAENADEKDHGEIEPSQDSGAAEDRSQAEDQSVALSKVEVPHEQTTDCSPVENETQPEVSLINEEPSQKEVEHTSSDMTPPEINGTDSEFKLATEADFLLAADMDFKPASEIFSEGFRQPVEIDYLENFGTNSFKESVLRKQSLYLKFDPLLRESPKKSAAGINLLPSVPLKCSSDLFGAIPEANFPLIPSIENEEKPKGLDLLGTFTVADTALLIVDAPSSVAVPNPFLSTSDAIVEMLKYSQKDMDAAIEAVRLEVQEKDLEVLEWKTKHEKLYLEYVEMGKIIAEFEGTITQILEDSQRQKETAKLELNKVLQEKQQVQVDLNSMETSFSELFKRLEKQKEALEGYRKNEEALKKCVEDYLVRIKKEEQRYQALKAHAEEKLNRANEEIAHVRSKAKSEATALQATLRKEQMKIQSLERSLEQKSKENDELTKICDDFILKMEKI

Like-named read-outs stand apart in the source and are kept apart here. Results are given in words; binding and its absence hold for the method and conditions named. Binding seen in cells or lysates may run through a third protein. A result given as binding can be weak or reduced; the word gives no strength. For some of these results: Where a sequence is shown, tags or fusion partners need not be part of it.

The target in assay [1] is HA-tagged CPEB1 (Xenopus laevis) (UniProt Q91572). Briefly: co-IP; HA-tagged CPEB as bait from injected RNA in stage VI oocytes; lysis in 20 mM Tris-HCl pH 8, 100 mM NaCl, 0.4% NP40, 1 mM EDTA, 1 mM MgCl2; anti-HA magnetic beads; endogenous preys by Western blot.
The target of assay [2] is HA-tagged CPEB2 (Xenopus laevis). The assay is described as above.
A further assay concerns the target T1, HA-GLD2 (UniProt Q641A1).
T1 sequence: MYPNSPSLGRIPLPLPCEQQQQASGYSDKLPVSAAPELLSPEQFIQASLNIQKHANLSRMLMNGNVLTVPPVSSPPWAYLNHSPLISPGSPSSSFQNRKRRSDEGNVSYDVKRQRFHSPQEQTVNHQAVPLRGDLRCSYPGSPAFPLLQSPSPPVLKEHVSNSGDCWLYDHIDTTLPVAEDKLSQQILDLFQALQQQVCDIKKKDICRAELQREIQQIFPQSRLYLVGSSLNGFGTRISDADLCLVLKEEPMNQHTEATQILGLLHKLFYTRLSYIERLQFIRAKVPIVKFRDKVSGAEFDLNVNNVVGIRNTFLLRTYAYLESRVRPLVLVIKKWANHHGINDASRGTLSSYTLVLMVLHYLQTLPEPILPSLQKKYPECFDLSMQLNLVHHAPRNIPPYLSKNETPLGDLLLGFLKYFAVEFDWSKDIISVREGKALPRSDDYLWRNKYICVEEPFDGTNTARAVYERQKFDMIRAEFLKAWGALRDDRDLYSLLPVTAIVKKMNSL
Briefly: co-IP; HA-tagged partner as bait from injected RNA in stage VI oocytes; anti-HA magnetic beads; endogenous CPEB1 by Western blot (Fig. 3C). Background: A western blot detects proteins with antibodies after separation by electrophoresis.

The target in assay [3] is HA-tagged CPEB1 (Xenopus laevis) (UniProt Q91572). Put plainly: co-IP; HA-tagged CPEB as bait from injected RNA in stage VI oocytes; lysis in 20 mM Tris-HCl pH 8, 100 mM NaCl, 0.4% NP40, 1 mM EDTA, 1 mM MgCl2; anti-HA magnetic beads; endogenous preys by Western blot. This is another data set of the same source.
The target in assay [4] is HA-tagged CPEB1(Y365A) (Xenopus laevis) (UniProt Q91572). The assay is described as above.

On to Maskin (from UniProt Q9PTG8 1-931), for which, in assay [1], the binding entry is on record as “no binding”.

endogenous CPEB1 (from UniProt Q91572): the binding entry (in assay [1]; in assay [2]; with HA-GLD2) was “binds” throughout.

B1: Symplekin (SYMPK) (protein, UniProt Q7ZYV9 1-1202)
chain: MAVSMASQFFSQEEGTSEVVSTSERVVELLNMAALATNDTKITMLKQVQELIINKDPTLLDNFLDEIIAFQADKSVEVRKIVVNFIEEACKLDNELLIKLIANLHMLLKDENVNVVKKSILTMTQLYKVALQWVARSRPPSEQQESCWDLVTEMAADILLLLESDNDGMRTHAVKFVESLIVTLSPRTADSEVPKRQDGDISLEQIPPDHQFLKYNTLRDLGKQAVKELLKFMAHPAISSINLTAALGSLASIARQRPMFMAEVIQAYETLHANLPPTLAKSQVSSVRKNLKLQLLSVLRHPSSYEYQGPISTLLLDLGTSQGEITRHLPPPRDSNRKRAREDGEGGQKKSRTDIPLPDDDDDKDTMQLPTIPAPAPSTQSATDITADFVRPLLSPENVANLVLISMVYLPDSMPASFQSTYTPVESAGTDSQIRHLARLMATQMSAAGIGPGVEQSKDIPVDVVEEENIKPEGLVIKRRISALTKGQAISVLGCQSEKTKEEEEEEDDAPLAKKRPEPILPATQIRPSGVGGRKKVFRLKEVTEPLTDVQIKSLKLGAVRRILQAERSVGSSGASQMRVKVLARLVTQLDISVKAEVLSHFLNDPRMRLDLALAWLYQEYCEYQSGAGEEGYQECLIGILTGLQERPDQRDGVFTKVVLEAPLLTDSALDVLRKYCEDEGRSYLGMSTLRDLILTRPARQFQYLHLLLDLSSHEKDKIRQQSLHFIKRMYEKESLRPYIEKFALNYLQLLVHPNPPSVLFGADKDTEVAAPWTEDTVKQCLYLYLALLPQNHKLIHELASVYTEATADIKRTVLRVIETPIRGMGMNSPELLLLVENCPKGAETLVTRCLHILTDKVPPSPELVKRVRELYHKRLPDVRFLIPVLNGLDKKEVIQALPKLIKLNPIVVKEVFNRLLGTQHGEVSSSLSPLTPGDLLVALHNIDSSKCDMKSVIKATNLCFSARSVYTSEVLAVVLQQLMDTTPLPMLLMRTVIQALGMYPRLGGFIMNILTRLIYKQVWKYPKVWEGFIKCCQRTKPQSFSVLLQLPPPQLLSVLQTSPDLRDPLLAHVRAFTPHQLAHVPHSIMAILEAESRTDAGAEEAAQVEEEQETPAQDIIARRLAQEKSLKKQIEEQKGRNNQEMEEVAEVDPPAIFIAEEEEEESLKSQGKEEPQEDSSSNATTAEKSPVADEPMEEEPVEKKD
Turning to B1, the binding result in assay [3] and in assay [4] was “binds” throughout.

B2: PARN (protein, UniProt Q90ZA1 1-631)
chain: MEITRSNFKDTLPKVYKAIEEADFLAIDGEFSGISDGPSVSTLTNGFDTPEERYTKLKKHSMEFLLFQFGLCTFNYDNTEAKYLMKSFNFYIFPKPFNRNSPDKKFVCQSSSIDFLANQGFDFNKVFRNGIPYLNQEEERVLRDQYEDRRSQSNGASTMSYISPNSSKTPVSIPDEQKGFIDKVVERVEDFLKNEQKSMNVEPCTGYQRKLIYQTLNWKYPRGIHVETVESEKKERYIVISKVDEEERKRMEQQKQAKEREELDDAVGFSRIIQAISSSGKLVVGHNMLLDVMHTIHQFFCQLPDELNEFKEVTNCVFPRVLDTKLMASTNPFKEIIYNTSLAELEKRLKEAPFKPPKVDSAEGFQSYNTASEQLHEAGYDAYITGLCFISMANYLGSFLSPPKDYVSCRSKIVRPFFNKLFLMRIMDIPYLNLEGPDLQPKRDNVLHVTFPKEWKTSDLYQLFSAFGNIQVSWIDDTSAFVSLSQPEQVQIAVNTSKYAESYRIQTYAEYIEKKNDESQTKRKWAEDGWKDLERKRLKTQYNSYIPQNPVFYGNCFAPSFAVKRSMSPIQEEAASDDTEEVHTHENDPSNPGATEQGKKPKNHKRQKIDSAPPETSDGGSSVLFEVPDTW
With B2, the binding entry in assay [3] is listed as “no binding”.
